Results deposited as PubChem BioAssay AID652243 (Drosophila RNAi Screening Center, 2013)

- Assay: 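Knock-downs that decrease or increase androgen receptor reporter signal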 (primary screen)
- Cell system: Drosophila S2R+ cells
- Reagent: long dsRNA against Drosophila genes
- Duration: 72 h (48 h, then 24 h hormone)
- Challenge: synthetic androgen R1881 at 10 nM for 24 h
- Measurement: 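Per-well raw luminescence of the androgen-driven firefly reporter and of the Renilla control, two replicates each, without normalisation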
- Reading the numbers: firefly reporter light: higher = more light from androgen-responsive reporter; Renilla control light: higher = more constitutive control signal (cell number, transfection)
- Call rule: 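Across duplicate plates, a knock-down whose log firefly/Renilla ratio shifted a set fold down or up from the GFP/LacZ control mean was a hit; the downward cut appears as both 1.5 and 3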
- Meaning of the calls: active = hit: reporter lowered or raised; inactive = no hit
The screen tested about 24,000 reagents; shown is a random part of those that have a named target and a result. Of all reagents, 246 (1%) are marked active. 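Plates not normalised; calls are printed but the firefly/Renilla ratio behind them is not deposited; fold cut for lowering reported inconsistently.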 The raw values are shown without normalisation. A plus sign joins genes that one reagent is predicted to hit. Not stated in the record: the amount of reagent.

no.	predicted target	DRSC id	firefly reporter light, replicate 1	firefly reporter light, replicate 2	Renilla control light, replicate 1	Renilla control light, replicate 2	Outcome
1	SWIP	DRSC19540	4.35e5	4.27e5	3.69e6	2.94e6	inactive
2	Vajk3	DRSC01883	9.20e5	9.54e5	1.96e6	2.03e6	inactive
3	Vajk3	DRSC25405	5.86e5	7.29e5	8.94e5	1.21e6	inactive
4	CG15124	DRSC06546	57637	1.07e5	8.86e5	1.45e6	inactive
5	CG31909	DRSC22180	6.70e5	4.96e5	1.89e6	1.76e6	inactive
6	CG31909	DRSC26278	3.76e5	5.81e5	3.22e5	7.39e5	inactive
7	CG7330	DRSC10813	2.92e5	2.84e5	2.35e6	2.17e6	inactive
8	CG7330	DRSC10814	2.45e5	1.55e5	2.58e6	1.67e6	inactive
9	mbl	DRSC23188	9.13e5	6.60e5	1.63e6	1.16e6	inactive
10	mbl	DRSC28319	5.89e5	7.32e5	1.17e6	1.36e6	inactive
11	Sbat	DRSC00160	3.33e5	1.25e5	8.57e5	5.08e5	inactive
12	CG14220	DRSC19577	59437	57986	2.56e5	2.05e5	inactive
13	CG14220	DRSC26345	2.80e5	1.98e5	5.88e5	7.55e5	inactive
14	CG31495	DRSC16762	1.14e5	1.42e5	2.02e6	2.13e6	inactive
15	CG31495	DRSC29177	5.07e5	7.06e5	9.99e5	1.13e6	inactive
16	Ir75a	DRSC10188	1.36e5	1.65e5	1.24e6	1.58e6	inactive

Laid out differently: 2 of the entries above.
predicted target,DRSC id,"firefly reporter light, replicate 1","firefly reporter light, replicate 2","Renilla control light, replicate 1","Renilla control light, replicate 2",Outcome
CG31495,DRSC29177,5.07e5,7.06e5,9.99e5,1.13e6,inactive
Ir75a,DRSC10188,1.36e5,1.65e5,1.24e6,1.58e6,inactive

The listing continues.
no.	predicted target	DRSC id	firefly reporter light, replicate 1	firefly reporter light, replicate 2	Renilla control light, replicate 1	Renilla control light, replicate 2	Outcome
17	CG3436	DRSC00605	7.97e5	5.36e5	3.34e6	1.76e6	inactive
18	Ubc2	DRSC01137	3.00e5	3.69e5	3.04e5	3.41e5	inactive
19	Ubc2	DRSC03468	1.21e5	90150	1.15e6	8.35e5	inactive
20	Ubc2	DRSC29062	6.30e5	5.02e5	1.80e6	1.71e6	inactive
21	CG9312	DRSC16471	1.17e5	77689	8.43e5	7.56e5	inactive
22	CG12355	DRSC09381	6.07e5	4.64e5	2.26e6	2.83e6	inactive
23	CG12355	DRSC09883	2.74e5	2.18e5	2.65e6	1.99e6	inactive
24	CG3927 + nsr	DRSC27267	4.12e5	3.35e5	5.44e5	4.61e5	inactive
